Our source for the binding values is PMC11727998, “Purification and Electron Transfer from Soluble c-Type Cytochrome TorC to TorA for Trimethylamine N-Oxide Reduction” (International Journal of Molecular Sciences, 2024).

The target of one test is T1, TorA (TMAO reductase) (E. coli, UniProt P33225 40-848).
T1 sequence: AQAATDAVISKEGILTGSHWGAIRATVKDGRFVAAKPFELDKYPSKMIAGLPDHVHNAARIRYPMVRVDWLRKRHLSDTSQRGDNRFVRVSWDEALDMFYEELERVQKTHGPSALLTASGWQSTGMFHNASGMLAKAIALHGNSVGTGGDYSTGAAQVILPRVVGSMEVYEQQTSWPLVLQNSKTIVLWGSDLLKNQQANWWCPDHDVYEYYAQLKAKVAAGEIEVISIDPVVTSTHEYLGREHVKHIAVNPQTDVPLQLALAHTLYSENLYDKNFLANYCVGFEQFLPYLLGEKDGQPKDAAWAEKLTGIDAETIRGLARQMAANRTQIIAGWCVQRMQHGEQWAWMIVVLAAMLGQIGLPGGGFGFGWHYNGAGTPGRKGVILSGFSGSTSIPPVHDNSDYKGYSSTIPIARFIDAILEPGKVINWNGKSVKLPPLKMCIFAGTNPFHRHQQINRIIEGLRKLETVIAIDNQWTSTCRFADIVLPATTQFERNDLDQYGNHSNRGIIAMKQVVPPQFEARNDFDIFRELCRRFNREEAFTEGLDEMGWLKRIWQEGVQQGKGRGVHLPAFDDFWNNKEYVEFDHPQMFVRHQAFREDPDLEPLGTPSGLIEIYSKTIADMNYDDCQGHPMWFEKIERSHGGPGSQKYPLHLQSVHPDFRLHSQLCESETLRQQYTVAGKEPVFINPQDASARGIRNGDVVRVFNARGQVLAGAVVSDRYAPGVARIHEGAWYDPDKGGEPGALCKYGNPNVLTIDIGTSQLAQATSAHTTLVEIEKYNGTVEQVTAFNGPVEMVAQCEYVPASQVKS
The test is described as follows: cross-linking; 5 µM TorA, 5 µM TorC, 1 mM DSPP, 100 mM NaCl, 20 mM HEPES pH 7.4, 1 h at RT; tryptic digest, enrichment, LC-MS; four replicates; both purified.

The target in test [1] is soluble TorC (heme-containing, holo-TorC) (E. coli) (UniProt P33226). As to the kind of experiment: SEC; Ni-NTA-purified TorC alone (approx. 20 mg) on a 16/600 Superdex 200 prep-grade column in 50 mM Tris-HCl, pH 7.6; both purified.
The target of another test is T2, apo-TorA (E. coli, UniProt P33225 40-848).
T2 construct: TorA, TMAO reductase of E. coli, apo form; Apo form (without cofactor); source: purified following published procedures [31]
T2 sequence: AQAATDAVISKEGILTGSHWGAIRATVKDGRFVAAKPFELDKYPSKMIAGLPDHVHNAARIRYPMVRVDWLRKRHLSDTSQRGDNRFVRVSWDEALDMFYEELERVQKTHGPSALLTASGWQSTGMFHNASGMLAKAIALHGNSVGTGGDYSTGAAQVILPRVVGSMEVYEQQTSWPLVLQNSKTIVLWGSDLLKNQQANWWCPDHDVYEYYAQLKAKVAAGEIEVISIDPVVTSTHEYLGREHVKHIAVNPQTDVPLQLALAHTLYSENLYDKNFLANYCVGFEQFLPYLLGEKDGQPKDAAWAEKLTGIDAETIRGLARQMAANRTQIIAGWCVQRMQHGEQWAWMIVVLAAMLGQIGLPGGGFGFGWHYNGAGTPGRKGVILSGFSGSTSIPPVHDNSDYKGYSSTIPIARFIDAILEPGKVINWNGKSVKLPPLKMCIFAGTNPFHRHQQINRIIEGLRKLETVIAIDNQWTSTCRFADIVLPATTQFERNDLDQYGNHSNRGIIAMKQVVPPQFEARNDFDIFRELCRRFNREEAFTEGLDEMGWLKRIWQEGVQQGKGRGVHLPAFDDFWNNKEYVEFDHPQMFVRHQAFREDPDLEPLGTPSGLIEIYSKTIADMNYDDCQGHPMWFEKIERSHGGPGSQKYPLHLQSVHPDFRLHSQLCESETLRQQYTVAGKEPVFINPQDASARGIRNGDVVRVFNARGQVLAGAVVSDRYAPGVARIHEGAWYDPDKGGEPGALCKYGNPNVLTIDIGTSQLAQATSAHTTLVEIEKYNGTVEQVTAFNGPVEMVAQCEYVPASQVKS
As to the kind of experiment: SEC; analytical Superdex 200 10/300 GL, 30 µM of each protein in 20 mM phosphate buffer, pH 7.4; fractions on SDS-PAGE; both purified. On the technique in general: In gel filtration, larger molecules generally elute earlier.

Results are given in words; binding and its absence hold for the method and conditions named. Some results given as binding are weak or reduced against the parent protein; the word gives no strength.

B1: soluble TorC (heme-containing, holo-TorC) (natural protein, E. coli, UniProt P33226 21-390, looked up)
chain: VAIGIVIGIALIVLPHVGIKVTSTTEFCVSCHSMQPVYEEYKQSVHFQNASGVRAECHDCHIPPDIPGMVKRKLEASNDIYQTFIAHSIDTPEKFEAKRAELAEREWARMKENNSATCRSCHNYDAMDHAKQHPEAARQMKVAAKDNQSCIDCHKGIAHQLPDMSSGFRKQFDELRASANDSGDTLYSIDIKPIYAAKGDKEASGSLLPASEVKVLKRDGDWLQIEITGWTESAGRQRVLTQFPGKRIFVASIRGDVQQQVKTLEKTTVADTNTEWSKLQATAWMKKGDMVNDIKPIWAYADSLYNGTCNQCHGAPEIAHFDANGWIGTLNGMIGFTSLDKREERTLLKYLQMNASDTAGKAHGDKKEEK
modifications: heme c at the five CXXCH motifs (iron saturation about 75% of five hemes)
notes: TorC, pentahemic c-type cytochrome of E. coli, lacking the N-terminal 20 amino acid membrane anchor (first 60 nucleotides of the gene deleted); also called soluble periplasmic TorC; source: E. coli HM125 with pTorC-SS and pEC86 (ccmABCDEFGH), hemin added, purified (Ni-NTA, gel filtration)
For B1, the binding entry in the test with TorA (TMAO reductase) is “binds”; in test [1], “no binding”; with apo-TorA, “binds”.
